Laboratory results taken from US9045531B2, “HLA-binding peptide, precursor thereof, and DNA fragment and recombinant vector coding for said HLA-binding peptide” (NEC CORPORATION, priority 2006, dated 2015).
At least one peptide structure holds a part that was inferred or is arguable (an end, a ring closure or a residue). Some entries repeat one wording, which the source may state once for all of them. No end group written: not given here.

System: human HLA-A type molecule
Experiment: Binding experiments, summary statement for HLA-A type molecules
Conditions: summary of the binding experiments

Sequence | binding to a human HLA-A type molecule (result in words)
AQRAMMDQV [SEQ ID NO: 34] | experimentally confirmed to bind
AVKGIGTMV [SEQ ID NO: 27] | experimentally confirmed to bind
FRLLQNSQV [SEQ ID NO: 24] | experimentally confirmed to bind
IFLARSALI [SEQ ID NO: 35] | experimentally confirmed to bind
NATEIRASV [SEQ ID NO: 36] | experimentally confirmed to bind
SALILRGSV [SEQ ID NO: 37] | experimentally confirmed to bind
SLPFERATI [SEQ ID NO: 22] | experimentally confirmed to bind
